In the supplement of paper PMC10849652:
The list shows a part of the results.

Chains of the proteins cited; added tags and fusions are not shown. Lines headed by an entry give the natural chain unless they say otherwise; changes in a name come on top.
UniProt Q15506: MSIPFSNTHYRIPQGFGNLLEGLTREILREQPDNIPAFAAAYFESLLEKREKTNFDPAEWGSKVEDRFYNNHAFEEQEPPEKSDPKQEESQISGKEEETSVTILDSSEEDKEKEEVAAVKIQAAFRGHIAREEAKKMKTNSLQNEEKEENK
UniProt Q5VWJ9: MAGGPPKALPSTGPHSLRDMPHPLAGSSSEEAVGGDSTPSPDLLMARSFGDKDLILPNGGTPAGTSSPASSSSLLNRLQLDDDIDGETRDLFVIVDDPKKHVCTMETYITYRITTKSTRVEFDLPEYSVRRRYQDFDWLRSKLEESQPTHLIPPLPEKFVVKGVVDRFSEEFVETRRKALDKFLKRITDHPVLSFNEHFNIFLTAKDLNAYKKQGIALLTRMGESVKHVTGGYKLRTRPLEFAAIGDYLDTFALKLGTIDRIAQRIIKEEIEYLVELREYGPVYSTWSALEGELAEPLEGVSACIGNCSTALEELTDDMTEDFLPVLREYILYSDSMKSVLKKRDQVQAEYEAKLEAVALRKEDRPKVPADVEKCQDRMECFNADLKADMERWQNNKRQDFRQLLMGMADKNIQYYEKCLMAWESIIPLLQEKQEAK
UniProt Q9NRS6: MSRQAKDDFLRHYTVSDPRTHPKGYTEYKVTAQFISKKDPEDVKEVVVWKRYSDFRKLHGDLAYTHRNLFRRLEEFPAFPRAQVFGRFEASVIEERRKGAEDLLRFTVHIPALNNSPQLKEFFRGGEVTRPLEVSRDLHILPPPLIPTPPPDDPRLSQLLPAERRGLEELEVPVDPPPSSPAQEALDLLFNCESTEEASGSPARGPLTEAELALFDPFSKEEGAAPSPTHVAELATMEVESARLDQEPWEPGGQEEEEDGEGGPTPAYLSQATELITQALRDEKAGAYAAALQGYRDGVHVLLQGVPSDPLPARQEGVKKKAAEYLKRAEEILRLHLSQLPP
UniProt P57768: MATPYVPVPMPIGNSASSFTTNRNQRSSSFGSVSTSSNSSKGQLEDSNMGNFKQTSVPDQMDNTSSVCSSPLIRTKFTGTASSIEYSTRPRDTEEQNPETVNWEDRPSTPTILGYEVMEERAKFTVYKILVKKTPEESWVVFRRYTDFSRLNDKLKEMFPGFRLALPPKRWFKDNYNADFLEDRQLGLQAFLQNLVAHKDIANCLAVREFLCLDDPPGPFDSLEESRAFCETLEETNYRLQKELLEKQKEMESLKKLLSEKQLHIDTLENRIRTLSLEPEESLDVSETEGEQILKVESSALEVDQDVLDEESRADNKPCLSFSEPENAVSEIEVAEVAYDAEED
UniProt Q92540: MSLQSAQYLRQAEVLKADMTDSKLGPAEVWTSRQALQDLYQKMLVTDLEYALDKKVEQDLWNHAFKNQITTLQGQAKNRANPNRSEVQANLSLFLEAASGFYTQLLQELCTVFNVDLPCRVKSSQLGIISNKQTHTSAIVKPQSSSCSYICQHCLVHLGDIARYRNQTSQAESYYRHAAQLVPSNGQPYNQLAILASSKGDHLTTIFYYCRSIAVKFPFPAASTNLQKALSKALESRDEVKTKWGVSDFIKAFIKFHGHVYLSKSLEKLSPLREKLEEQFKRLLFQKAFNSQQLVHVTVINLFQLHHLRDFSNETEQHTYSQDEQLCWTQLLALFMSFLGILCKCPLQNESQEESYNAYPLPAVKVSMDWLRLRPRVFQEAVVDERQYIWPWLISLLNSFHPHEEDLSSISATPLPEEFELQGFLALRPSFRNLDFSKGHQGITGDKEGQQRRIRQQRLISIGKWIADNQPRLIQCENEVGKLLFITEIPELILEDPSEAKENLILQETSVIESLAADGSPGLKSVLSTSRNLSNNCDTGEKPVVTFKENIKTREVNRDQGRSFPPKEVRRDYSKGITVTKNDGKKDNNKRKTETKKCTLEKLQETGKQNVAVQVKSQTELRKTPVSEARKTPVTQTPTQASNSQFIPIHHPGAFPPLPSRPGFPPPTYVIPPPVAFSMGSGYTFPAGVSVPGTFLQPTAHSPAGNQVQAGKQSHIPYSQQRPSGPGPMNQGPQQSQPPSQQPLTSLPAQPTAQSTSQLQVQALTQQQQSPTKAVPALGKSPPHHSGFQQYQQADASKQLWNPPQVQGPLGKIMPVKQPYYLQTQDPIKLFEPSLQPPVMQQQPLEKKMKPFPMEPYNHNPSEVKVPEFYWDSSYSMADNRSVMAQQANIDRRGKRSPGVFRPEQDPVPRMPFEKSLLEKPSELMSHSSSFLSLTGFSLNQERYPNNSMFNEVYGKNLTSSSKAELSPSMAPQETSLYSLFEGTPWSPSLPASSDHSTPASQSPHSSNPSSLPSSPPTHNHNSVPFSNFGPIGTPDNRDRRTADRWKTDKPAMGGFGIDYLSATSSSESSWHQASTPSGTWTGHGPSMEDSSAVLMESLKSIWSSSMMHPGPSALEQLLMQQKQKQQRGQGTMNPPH
UniProt P35711: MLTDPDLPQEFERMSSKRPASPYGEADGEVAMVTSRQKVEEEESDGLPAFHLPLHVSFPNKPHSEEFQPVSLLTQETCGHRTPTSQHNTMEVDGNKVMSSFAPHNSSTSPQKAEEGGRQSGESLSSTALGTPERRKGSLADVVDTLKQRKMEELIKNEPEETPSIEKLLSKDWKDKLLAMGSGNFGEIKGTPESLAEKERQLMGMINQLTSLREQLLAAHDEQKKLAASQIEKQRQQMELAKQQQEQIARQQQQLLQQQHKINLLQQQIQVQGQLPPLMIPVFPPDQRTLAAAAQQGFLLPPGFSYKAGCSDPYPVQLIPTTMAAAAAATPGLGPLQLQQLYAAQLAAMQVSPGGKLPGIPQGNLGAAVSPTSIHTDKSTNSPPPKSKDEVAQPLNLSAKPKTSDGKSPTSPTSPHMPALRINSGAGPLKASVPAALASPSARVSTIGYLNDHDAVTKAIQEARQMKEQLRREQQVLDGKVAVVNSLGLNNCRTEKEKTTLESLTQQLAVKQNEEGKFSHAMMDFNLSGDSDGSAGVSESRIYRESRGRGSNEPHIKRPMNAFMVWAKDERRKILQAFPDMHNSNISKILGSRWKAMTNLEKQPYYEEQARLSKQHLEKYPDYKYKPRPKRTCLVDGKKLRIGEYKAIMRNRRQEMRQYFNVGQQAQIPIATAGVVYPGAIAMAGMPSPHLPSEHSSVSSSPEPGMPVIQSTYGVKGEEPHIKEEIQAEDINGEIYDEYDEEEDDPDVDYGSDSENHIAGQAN
UniProt Q86US8: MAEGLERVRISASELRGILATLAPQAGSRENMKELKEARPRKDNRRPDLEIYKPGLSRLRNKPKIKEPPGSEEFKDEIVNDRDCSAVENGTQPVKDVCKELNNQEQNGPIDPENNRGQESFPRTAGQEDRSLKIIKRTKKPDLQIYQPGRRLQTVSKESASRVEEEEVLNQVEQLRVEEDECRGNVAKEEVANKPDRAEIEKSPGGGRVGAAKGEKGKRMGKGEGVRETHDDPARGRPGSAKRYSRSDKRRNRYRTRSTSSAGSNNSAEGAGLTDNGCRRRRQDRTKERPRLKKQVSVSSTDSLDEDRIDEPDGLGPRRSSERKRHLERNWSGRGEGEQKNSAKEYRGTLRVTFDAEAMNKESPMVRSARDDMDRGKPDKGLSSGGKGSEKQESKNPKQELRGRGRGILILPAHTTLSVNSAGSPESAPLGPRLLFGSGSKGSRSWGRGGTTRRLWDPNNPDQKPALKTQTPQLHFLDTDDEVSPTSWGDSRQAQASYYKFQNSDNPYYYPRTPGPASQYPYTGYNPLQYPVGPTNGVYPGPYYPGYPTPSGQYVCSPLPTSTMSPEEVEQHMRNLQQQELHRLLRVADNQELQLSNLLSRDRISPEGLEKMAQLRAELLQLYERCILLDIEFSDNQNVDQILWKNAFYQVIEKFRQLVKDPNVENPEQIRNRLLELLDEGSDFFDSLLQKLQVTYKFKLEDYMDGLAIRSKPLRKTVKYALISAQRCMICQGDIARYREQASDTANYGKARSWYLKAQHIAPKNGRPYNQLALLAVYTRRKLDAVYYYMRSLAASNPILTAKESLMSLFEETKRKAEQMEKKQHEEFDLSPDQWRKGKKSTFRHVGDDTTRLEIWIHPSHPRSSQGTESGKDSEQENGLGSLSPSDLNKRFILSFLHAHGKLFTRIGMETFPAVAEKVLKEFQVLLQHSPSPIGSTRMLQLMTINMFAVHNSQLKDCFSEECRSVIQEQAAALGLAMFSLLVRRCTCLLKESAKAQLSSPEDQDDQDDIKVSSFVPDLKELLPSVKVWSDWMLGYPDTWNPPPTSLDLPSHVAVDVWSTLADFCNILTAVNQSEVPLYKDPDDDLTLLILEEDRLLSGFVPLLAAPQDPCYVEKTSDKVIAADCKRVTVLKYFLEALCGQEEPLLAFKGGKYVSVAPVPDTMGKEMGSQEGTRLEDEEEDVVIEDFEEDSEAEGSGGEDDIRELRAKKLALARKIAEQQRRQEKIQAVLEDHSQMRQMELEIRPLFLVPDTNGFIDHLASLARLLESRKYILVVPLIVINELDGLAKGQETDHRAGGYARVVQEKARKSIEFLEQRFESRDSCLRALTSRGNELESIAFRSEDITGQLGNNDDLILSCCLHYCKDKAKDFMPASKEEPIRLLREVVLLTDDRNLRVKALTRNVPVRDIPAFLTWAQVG
UniProt Q02446, whole entry, looked up: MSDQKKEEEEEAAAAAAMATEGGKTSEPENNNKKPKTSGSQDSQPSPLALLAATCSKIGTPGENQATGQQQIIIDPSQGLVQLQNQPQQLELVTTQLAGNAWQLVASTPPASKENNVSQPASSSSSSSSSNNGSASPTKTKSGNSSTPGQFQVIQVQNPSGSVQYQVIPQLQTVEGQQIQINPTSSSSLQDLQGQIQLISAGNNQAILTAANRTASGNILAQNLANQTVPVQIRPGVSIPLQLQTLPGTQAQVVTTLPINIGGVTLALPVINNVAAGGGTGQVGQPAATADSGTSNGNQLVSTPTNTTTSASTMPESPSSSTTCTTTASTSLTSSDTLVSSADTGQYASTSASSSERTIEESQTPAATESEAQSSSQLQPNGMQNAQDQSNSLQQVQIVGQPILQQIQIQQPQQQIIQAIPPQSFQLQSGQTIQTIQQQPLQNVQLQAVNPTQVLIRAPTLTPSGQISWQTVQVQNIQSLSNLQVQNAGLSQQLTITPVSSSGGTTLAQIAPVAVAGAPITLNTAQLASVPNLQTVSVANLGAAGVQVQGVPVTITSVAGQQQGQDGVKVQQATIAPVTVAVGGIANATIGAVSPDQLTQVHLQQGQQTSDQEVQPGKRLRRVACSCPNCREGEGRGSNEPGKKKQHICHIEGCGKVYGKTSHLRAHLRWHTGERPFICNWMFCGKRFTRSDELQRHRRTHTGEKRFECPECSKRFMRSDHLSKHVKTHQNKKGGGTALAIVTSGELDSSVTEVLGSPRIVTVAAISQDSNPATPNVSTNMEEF
UniProt P62318, whole entry, looked up: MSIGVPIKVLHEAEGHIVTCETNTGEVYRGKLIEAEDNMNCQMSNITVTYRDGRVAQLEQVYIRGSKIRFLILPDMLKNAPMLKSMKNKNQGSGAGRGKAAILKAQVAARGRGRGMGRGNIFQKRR
UniProt Q96KF7: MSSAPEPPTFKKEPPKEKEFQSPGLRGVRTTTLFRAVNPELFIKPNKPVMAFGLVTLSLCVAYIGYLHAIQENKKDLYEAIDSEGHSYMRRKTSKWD
UniProt Q6GMV2: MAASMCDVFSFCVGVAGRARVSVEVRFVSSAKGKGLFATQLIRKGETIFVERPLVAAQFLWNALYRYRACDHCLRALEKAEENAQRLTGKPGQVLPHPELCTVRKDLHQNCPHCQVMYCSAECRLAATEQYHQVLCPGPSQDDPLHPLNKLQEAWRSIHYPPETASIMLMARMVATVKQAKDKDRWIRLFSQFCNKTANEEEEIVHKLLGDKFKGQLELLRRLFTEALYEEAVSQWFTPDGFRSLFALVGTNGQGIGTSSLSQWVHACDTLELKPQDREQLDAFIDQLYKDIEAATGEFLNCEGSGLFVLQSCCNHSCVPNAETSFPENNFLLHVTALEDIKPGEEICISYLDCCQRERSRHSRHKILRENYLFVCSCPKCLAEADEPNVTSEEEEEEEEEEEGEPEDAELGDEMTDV
UniProt P08579, whole entry, looked up: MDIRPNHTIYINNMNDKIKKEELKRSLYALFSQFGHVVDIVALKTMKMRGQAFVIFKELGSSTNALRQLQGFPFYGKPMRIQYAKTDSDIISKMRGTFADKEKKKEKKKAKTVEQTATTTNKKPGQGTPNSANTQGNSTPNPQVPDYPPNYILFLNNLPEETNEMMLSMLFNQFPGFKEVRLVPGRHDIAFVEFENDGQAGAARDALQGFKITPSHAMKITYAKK
UniProt P62308, whole entry, looked up: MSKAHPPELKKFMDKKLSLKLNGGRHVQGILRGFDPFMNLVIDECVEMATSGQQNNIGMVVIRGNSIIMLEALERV

Legend:
Assay in all cases: log2 fold change, soluble protein after heating vs DMSO (PISA); higher = thermal stabilisation; K562 lysate, 10 uM; active = over 0.2 and 3.5 SD of the protein, either way, in both replicates (recomputed)
lapatinib = compound: CS(=O)(=O)CCNCc1ccc(-c2ccc3ncnc(Nc4ccc(OCc5cccc(F)c5)c(Cl)c4)c3c2)o1 [lapatinib]
Outline: (§1)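 Quantification was by TMTpro 16plex LC-MS/MS with equalised channel sums, applied to the supernatant after 21,000xg for 90 min. Samples were crude K562 extract at 1 mg/mL protein in PBS pH 7.4 with 1 mM MgCl2, treated with 10 μM compound for 30 min, heated for 3 min across 48°C-58°C, pooled and brought to 0.5% NP-40 at 4°C. Values are log-two fold changes in thermal stability relative to solvent controls, from duplicates.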

pictilisib = compound: CS(=O)(=O)N1CCN(Cc2cc3nc(-c4cccc5[nH]ncc45)nc(N4CCOCC4)c3s2)CC1 [pictilisib]
Outline: as §1

crizotinib = compound: C[C@@H](Oc1cc(-c2cnn(C3CCNCC3)c2)cnc1N)c1c(Cl)ccc(F)c1Cl [crizotinib]
Outline: as §1

[1] = compound: C[C@H](C1=CC=C(C=C1)C(=O)NC2=C3C=CNC3=NC=C2)N
Outline: as §1

duvelisib = compound: C[C@H](Nc1ncnc2nc[nH]c12)c1cc2cccc(Cl)c2c(=O)n1-c1ccccc1 [duvelisib]
Outline: as §1

gandotinib = compound: Cc1cc(Nc2cc(CN3CCOCC3)c3nc(C)c(Cc4ccc(Cl)cc4F)n3n2)n[nH]1 [gandotinib]
Outline: as §1

tozasertib = compound: Cc1cc(Nc2cc(N3CCN(C)CC3)nc(Sc3ccc(NC(=O)C4CC4)cc3)n2)n[nH]1 [tozasertib]
Outline: as §1

doramapimod = compound: Cc1ccc(-n2nc(C(C)(C)C)cc2NC(=O)Nc2ccc(OCCN3CCOCC3)c3ccccc23)cc1 [doramapimod]
Outline: as §1

bafetinib = compound: Cc1ccc(NC(=O)c2ccc(CN3CC[C@H](N(C)C)C3)c(C(F)(F)F)c2)cc1Nc1nccc(-c2cncnc2)n1 [bafetinib]
Outline: as §1

[2] = compound: Cc1cccc(CC(=O)N2CCc3c2ccc(-c2cn(C)c4ncnc(N)c24)c3F)n1
Outline: as §1

dasatinib = compound: Cc1nc(Nc2ncc(C(=O)Nc3c(C)cccc3Cl)s2)cc(N2CCN(CCO)CC2)n1 [dasatinib]
Outline: as §1

[3] = compound: Cn1cc(-c2ccc3c(c2)CCN3C(=O)Cc2cccc(C(F)(F)F)c2)c2c(N)ncnc21
Outline: as §1

quisinostat = compound: Cn1cc(CNCC2CCN(c3ncc(C(=O)NO)cn3)CC2)c2ccccc21 [quisinostat]
Outline: as §1

[4] = compound: NC(=O)Nc1cc(-c2cccc(F)c2)sc1C(=O)N[C@H]1CCCNC1
Outline: as §1

[5] = compound: NC(=O)c1cnc(N[C@@H]2CCCC[C@@H]2N)nc1Nc1cccc(-n2nccn2)c1
Outline: as §1

nilotinib = compound: Cc1cn(-c2cc(NC(=O)c3ccc(C)c(Nc4nccc(-c5cccnc5)n4)c3)cc(C(F)(F)F)c2)cn1 [nilotinib]
Outline: as §1

[6] = compound: Cc1nc(Nc2n[nH]c3c2CN(C(=O)N[C@H](CN(C)C)c2ccccc2)C3(C)C)c2sccc2n1
Outline: as §1

[7] = compound: Cc1ncc(-c2ccnc(Nc3ccc(S(C)(=O)=O)cc3)n2)n1C(C)C
Outline: as §1

tipifarnib = compound: Cn1cncc1[C@@](N)(c1ccc(Cl)cc1)c1ccc2c(c1)c(-c1cccc(Cl)c1)cc(=O)n2C [tipifarnib]
Outline: as §1

[8] = compound: NC1(c2ccc(-c3nc4ccn5c(=O)[nH]nc5c4cc3-c3ccccc3)cc2)CCC1
Outline: as §1

Measured: log2 fold change

SPA17 (UniProt Q15506)
active: [1] -0.498
inactive: lapatinib 0.058 | pictilisib -0.012 | crizotinib 0.019 | duvelisib 0.009 | gandotinib 0.303 | tozasertib -0.022 | doramapimod 0.054 | bafetinib -0.076 | [2] 0.25 | dasatinib -0.065 | [3] -0.041 | quisinostat 0.003 | [4] -0.015 | [5] 0.042

SNX30 (UniProt Q5VWJ9)
inactive: lapatinib -0.08 | pictilisib -0.059 | crizotinib -0.006 | [1] -0.002 | duvelisib 0.017 | gandotinib -0.03 | doramapimod 0.003 | bafetinib -0.01 | [2] 0.058 | nilotinib -0.042 | [6] -0.005 | dasatinib -0.02 | [7] -0.046 | [3] 0.039 | quisinostat 0.014 | tipifarnib 0.023 | [4] 0.059 | [5] 0.081 | [8] -0.004

SNX15 (UniProt Q9NRS6)
inactive: lapatinib -0.006 | pictilisib -0.001 | crizotinib -0.014 | [1] -0.005 | duvelisib 0.005 | gandotinib -0.016 | tozasertib 0.022 | doramapimod -0.021 | bafetinib 0.011 | [2] 0.006 | nilotinib -0.007 | [6] 0.047 | dasatinib -0.032 | [7] -0.006 | [3] 0.058 | quisinostat -0.076 | tipifarnib 0.027 | [4] 0.011 | [5] -0.001 | [8] 0.065

SNX16 (UniProt P57768)
inactive: lapatinib 0.071 | pictilisib -0.073 | crizotinib -0.067 | [1] 0.137 | duvelisib -0.008 | gandotinib 0.094 | tozasertib 0.175 | doramapimod 0.037 | bafetinib -0.07 | [2] 0.102 | nilotinib -0.012 | [6] -0.063 | dasatinib -0.046 | [7] 0.068 | [3] 0.023 | quisinostat 0.113 | tipifarnib 0.191 | [4] 0.09 | [5] -0.031 | [8] -0.015

SMARCE1 (UniProt Q969G3)
inactive: lapatinib 0.007 | pictilisib -0.004 | crizotinib 0.034 | [1] 0.048 | duvelisib -0.027 | gandotinib -0.059 | tozasertib 0.015 | doramapimod 0 | bafetinib -0.004 | [2] -0.055 | nilotinib 0.014 | [6] 0.03 | dasatinib -0.055 | [7] 0 | [3] 0.001 | quisinostat 0.079 | tipifarnib 0.014 | [4] -0.007 | [5] -0.001 | [8] -0.005

SMG7 (UniProt Q92540)
active: doramapimod -0.257
inactive: lapatinib 0.101 | pictilisib 0.1 | crizotinib 0.043 | [1] -0.035 | duvelisib 0.026 | gandotinib -0.018 | tozasertib 0.026 | bafetinib -0.008 | [2] 0.022 | nilotinib 0.001 | [6] -0.034 | dasatinib 0.003 | [7] -0.058 | [3] 0.03 | quisinostat 0.062 | tipifarnib -0.072 | [4] 0.054 | [5] -0.067 | [8] 0.04

SMCR8 (UniProt Q8TEV9)
inactive: lapatinib 0.001 | pictilisib 0.001 | crizotinib 0.034 | [1] -0.086 | duvelisib 0.057 | gandotinib 0.067 | tozasertib 0.05 | doramapimod -0.012 | bafetinib -0.043 | [2] 0.057 | nilotinib 0.042 | [6] -0.057 | dasatinib -0.03 | [7] -0.04 | [3] -0.065 | quisinostat -0.036 | tipifarnib -0.017 | [4] -0.003 | [5] 0.049 | [8] 0.022

SMC2 (UniProt O95347)
inactive: lapatinib -0.019 | pictilisib 0.013 | crizotinib -0.028 | [1] 0.121 | duvelisib -0.009 | gandotinib -0.177 | tozasertib 0.014 | doramapimod 0.037 | bafetinib -0.02 | [2] -0.059 | nilotinib -0.017 | [6] -0.005 | dasatinib -0.036 | [7] 0.007 | [3] 0.025 | quisinostat -0.023 | tipifarnib 0.024 | [4] 0.034 | [5] 0.017 | [8] -0.003

SOX5 (UniProt P35711)
inactive: lapatinib 0.137 | pictilisib -0.019 | crizotinib 0.006 | [1] 0.007 | duvelisib -0.073 | gandotinib 0.06 | tozasertib -0.017 | doramapimod 0.026 | bafetinib -0.235 | [2] 0.007 | dasatinib -0.035 | [3] -0.095 | quisinostat 0.027 | [4] -0.03 | [5] -0.186 | [8] -0.004

SMG6 (UniProt Q86US8)
inactive: lapatinib 0.009 | pictilisib -0.032 | crizotinib 0.028 | [1] -0.097 | duvelisib -0.1 | gandotinib 0.025 | tozasertib -0.096 | doramapimod 0.051 | bafetinib -0.049 | [2] 0.039 | nilotinib -0.067 | [6] 0.028 | dasatinib 0.048 | [7] 0.079 | [3] 0.082 | quisinostat -0.05 | tipifarnib -0.065 | [4] 0.028 | [5] 0.065 | [8] 0.011

SP4 (UniProt Q02446)
inactive: lapatinib -0.06 | pictilisib -0.098 | crizotinib -0.016 | [1] -0.298 | duvelisib 0.058 | gandotinib 0.165 | tozasertib 0.152 | doramapimod -0.007 | bafetinib -0.1 | [2] 0.115 | dasatinib -0.023 | [3] -0.063 | quisinostat 0.018 | [4] 0.052 | [5] -0.034 | [8] 0.166

SNRPD3 (UniProt P62318)
active: [1] -0.233
inactive: lapatinib -0.027 | pictilisib -0.06 | crizotinib 0.008 | duvelisib 0.052 | gandotinib 0.102 | tozasertib 0.028 | doramapimod 0.014 | bafetinib 0.069 | [2] 0.11 | nilotinib 0.028 | [6] -0.006 | dasatinib 0.016 | [7] -0.034 | [3] 0.009 | quisinostat -0.002 | tipifarnib -0.002 | [4] 0.029 | [5] 0.004 | [8] 0.001

SMIM8 (UniProt Q96KF7)
inactive: lapatinib -0.053 | pictilisib -0.079 | crizotinib -0.041 | [1] -0.146 | duvelisib 0.019 | gandotinib 0.128 | tozasertib -0.038 | doramapimod -0.059 | bafetinib -0.035 | [2] 0.018 | nilotinib 0.059 | [6] -0.018 | dasatinib 0.032 | [7] 0.055 | [3] -0.023 | quisinostat 0.084 | tipifarnib -0.033 | [4] -0.02 | [5] -0.045 | [8] -0.013

Quoted at random: 2 entries already listed
SP4 (UniProt Q02446)
inactive: lapatinib -0.06 | pictilisib -0.098 | crizotinib -0.016 | [1] -0.298 | duvelisib 0.058 | gandotinib 0.165 | tozasertib 0.152 | doramapimod -0.007 | bafetinib -0.1 | [2] 0.115 | dasatinib -0.023 | [3] -0.063 | quisinostat 0.018 | [4] 0.052 | [5] -0.034 | [8] 0.166

SMG6 (UniProt Q86US8)
inactive: lapatinib 0.009 | pictilisib -0.032 | crizotinib 0.028 | [1] -0.097 | duvelisib -0.1 | gandotinib 0.025 | tozasertib -0.096 | doramapimod 0.051 | bafetinib -0.049 | [2] 0.039 | nilotinib -0.067 | [6] 0.028 | dasatinib 0.048 | [7] 0.079 | [3] 0.082 | quisinostat -0.05 | tipifarnib -0.065 | [4] 0.028 | [5] 0.065 | [8] 0.011

Carrying on.

SMYD5 (UniProt Q6GMV2)
inactive: lapatinib -0.036 | pictilisib -0.003 | crizotinib -0.032 | [1] -0.095 | duvelisib -0.025 | gandotinib 0.032 | tozasertib 0.008 | doramapimod 0.025 | bafetinib -0.062 | [2] 0.05 | nilotinib 0.097 | [6] -0.017 | dasatinib -0.015 | [7] 0.028 | [3] -0.008 | quisinostat -0.046 | tipifarnib 0.019 | [4] 0.014 | [5] 0.012 | [8] -0.032

SON isoform 9 (UniProt P18583)
inactive: lapatinib -0.044 | pictilisib 0.012 | crizotinib -0.041 | [1] -0.127 | duvelisib 0.026 | gandotinib -0.016 | tozasertib -0.028 | doramapimod 0.017 | bafetinib -0.147 | [2] 0.097 | nilotinib 0.022 | [6] -0.053 | dasatinib -0.053 | [7] 0.038 | [3] 0.028 | quisinostat -0.001 | tipifarnib -0.02 | [4] -0.015 | [5] 0 | [8] 0.021

SNRPB2 (UniProt P08579)
inactive: lapatinib -0.023 | pictilisib -0.011 | crizotinib 0.013 | [1] 0.021 | duvelisib 0.014 | gandotinib 0.012 | tozasertib -0.036 | doramapimod -0.023 | bafetinib -0.012 | [2] -0.017 | nilotinib -0.013 | [6] 0.031 | dasatinib 0 | [7] 0.003 | [3] 0.006 | quisinostat 0.013 | tipifarnib 0.012 | [4] 0.018 | [5] -0.01 | [8] -0.015

SNRPG (UniProt P62308)
inactive: lapatinib -0.008 | pictilisib -0.031 | crizotinib 0.014 | [1] -0.156 | duvelisib 0.013 | gandotinib 0.099 | tozasertib -0.055 | doramapimod -0.036 | bafetinib 0.039 | [2] 0.101 | nilotinib 0.027 | [6] -0.008 | dasatinib 0.016 | [7] -0.012 | [3] -0.038 | quisinostat -0.02 | tipifarnib 0.016 | [4] 0.026 | [5] 0.004 | [8] 0.002
